## Results of single-concentration screens

By UniProt entry, the sequences of proteins in these tests, tags left out.
UniProt P9WFT3, whole entry: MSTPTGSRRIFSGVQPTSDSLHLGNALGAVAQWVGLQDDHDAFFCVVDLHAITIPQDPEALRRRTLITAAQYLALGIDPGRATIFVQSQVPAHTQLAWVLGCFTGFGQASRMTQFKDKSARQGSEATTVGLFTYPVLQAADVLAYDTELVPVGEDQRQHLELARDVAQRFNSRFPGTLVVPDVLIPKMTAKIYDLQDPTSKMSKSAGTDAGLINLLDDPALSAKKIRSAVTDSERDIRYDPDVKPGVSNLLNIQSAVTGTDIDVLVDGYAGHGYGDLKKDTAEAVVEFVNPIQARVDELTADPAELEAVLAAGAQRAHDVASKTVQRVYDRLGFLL
UniProt P9WNZ1, whole entry: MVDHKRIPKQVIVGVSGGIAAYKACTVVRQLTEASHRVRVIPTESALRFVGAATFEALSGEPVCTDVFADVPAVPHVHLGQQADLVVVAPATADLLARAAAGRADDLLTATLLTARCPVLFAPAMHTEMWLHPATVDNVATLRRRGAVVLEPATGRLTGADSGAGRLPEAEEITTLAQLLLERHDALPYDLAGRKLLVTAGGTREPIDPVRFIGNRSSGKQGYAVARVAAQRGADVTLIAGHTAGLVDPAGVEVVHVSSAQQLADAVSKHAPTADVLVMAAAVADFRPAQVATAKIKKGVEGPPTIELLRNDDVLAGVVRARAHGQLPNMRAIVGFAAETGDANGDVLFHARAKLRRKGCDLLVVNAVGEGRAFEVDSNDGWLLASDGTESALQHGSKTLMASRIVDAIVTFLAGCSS

Values are the deposited “Percent Effect”, in %. The record does not define 0% and 100%; most values in the screen are far below 50% and negative numbers occur (in some assays of this library far below -100). Compounds were drawn at random from those tested, without regard to their results. Two or more numbers in one place are separate tests of the same structure; such repeats can differ widely. A dash means the value is not listed here; it may have been measured.

Leishmania in macrophages: 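Cell assay of Leishmania donovani living inside macrophages; the read-out is not stated. Tested at 30 µM. Higher reads as stronger inhibition (inferred: compounds with an IC50 in retests scored well above the rest). About 69,000 compounds were tested under these conditions; 1.5% (about 1,000) showed 50% or more at least once.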
MtTrpRS: 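Enzyme assay of tryptophanyl-tRNA synthetase; the read-out is not stated. Target: Tryptophan-tRNA ligase, Mycobacterium tuberculosis (UniProt P9WFT3). Tested at 10 µM. Direction is not recorded; retested compounds ran higher, which suggests that high means inhibition. Of about 65,000 compounds tested this way, about 64 (0.098%) reached 50% or more in at least one test.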
Toxoplasma: 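Assay of Toxoplasma gondii numbers, read through their beta-galactosidase reporter with a colour substrate. Concentration: 10 µM. Higher reads as fewer parasites (inferred from which compounds were picked for retests). About 67,000 compounds were tested under these conditions; 0.38% (about 260) showed 50% or more at least once.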
CoaBC: 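Enzyme assay of CoaBC with a phosphate dye (Biomol Green) read at 650 nm. Target: Coenzyme A biosynthesis protein CoaBC, Mycobacterium tuberculosis (UniProt P9WNZ1). Concentration: 30 µM. Higher reads as stronger inhibition, judged from the few compounds that gave an IC50. Most strong results did not repeat in a second test. Of about 67,000 compounds tested this way, about 40 (0.06%) reached 50% or more in at least one test.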

SMILES | Leishmania in macrophages | MtTrpRS | Toxoplasma | CoaBC
CNS(=O)(=O)CC1CCCN1C(=O)c1cccc(Cl)c1 (stereo not drawn) | -19.31 | -6.791 | 1.514 | -0.4878
COCCN(Cc1sccc1C)C(=O)C1CCCN(C(N)=O)C1 (stereo not drawn) | 20.42 | 0.6173 | -1.429 | -0.2451
Cc1cc(CN(C)C(=O)c2cccc(N3CCCC3=O)c2)no1 | 16.7 | 0.8655 | - | 1.285
Cc1cccc2cc(CN3CCC(N4CCOCC4)CC3)c(=O)[nH]c12 | 16.39 | -2.315 | -11.88 | 2.857
O=C(NCc1cccs1)C1CNCC12CCOCC2.O=C(O)C(F)(F)F (stereo not drawn) | 12.59 | - | 3.202 | -
Cc1cccc(CN2Cc3ncn(C)c3C(COCC(=O)N(C)C)C2)n1.O=C(O)C(F)(F)F.O=C(O)C(F)(F)F.O=C(O)C(F)(F)F (stereo not drawn) | -12.77 | - | -1.857 | -
O=C(Nc1ccc(S(=O)(=O)Nc2c(F)cccc2F)cc1)N1CCCC1 | 12.59 | -1.767 | -5.804 | -18.15
CC(C)n1cnnc1CN(C)CC1CCOC1 (stereo not drawn) | 13.89 | -0.2064 | 0 | -
CCC[C@H]1CN(CCS(C)(=O)=O)C[C@@H]1NC(=O)c1ccccn1 | 3.518 | -2.562 | 13.34 | 14.29
CCCS(=O)(=O)c1ncc(CN2CCC(C)CC2)n1CC1CCCO1 (stereo not drawn) | 19.59 | -1.016 | 2.378 | 4.931
Cn1cc(CN2CCCn3cnc(CN4CCCC4=O)c3C2)cn1 | -12.69 | -0.5247 | 0.5342 | 2.665
COc1cc(-c2cc(OC)c(OC)c(OC)c2)ncn1 | 9.508 & 12.93 | - | -10.1 | 8.313
CCC[C@@H]1CN(Cc2nnc(-c3cccnc3)o2)C[C@H]1NC(C)=O | -1.767 | -4.46 | -5.229 | -5.703
CCC(=O)N1CCN(c2cc(-n3cnc(C)c3C)nc(C)n2)CC1 | -0.2274 | 0.6734 | 26.45 | 2.788
O=S(=O)(C1CC1)N1CCO[C@@H]2CC(COCc3cccnc3)C[C@H]21 (stereo partly drawn) | - | - | - | 2.439
Cc1cc(C(=O)N2C[C@@H]3CCCO[C@@H]3[C@H](N(C)C(C)C)C2)c(C)[nH]1 | - | 7.092 | - | -9.895
Cc1csc(C(=O)N2CCCC(c3[nH]ncc3S(C)(=O)=O)C2)c1 (stereo not drawn) | 17.1 & -1.862 | - | 10.03 | 0
CCn1cc(CN2CCCN(C(=O)c3cccn3C)CC2)cn1 | 9.998 | -7.524 | -8.887 | 5.222
CCS(=O)(=O)N1CCn2c(COCC3CCOCC3)cnc2C1C (stereo not drawn) | 23.27 | -5.007 | -5.699 | 10.42
Cc1nccn1-c1cccc(C2CCCN(C3CCCC3)C2)n1 (stereo not drawn) | 20.32 & 19.54 | - | -8.532 | -0.4854
CC(C)=CCCC(C)CN1CCC(n2cc(C(C)(C)O)nn2)CC1 (stereo not drawn) | -17 | -0.277 | -8.645 | -0.9862
CN(CC(=O)c1ccc2[nH]c(=O)[nH]c2c1)Cc1ccc2c(c1)OCO2 | 35.88 | -0.6571 | 1.064 | 4.943
O=C(O)C(F)(F)F.c1ncn(Cc2cn3c(n2)CN(CC2CCCCC2)CC3)n1 | -8.043 | - | 14.64 | -
COCCC(=O)N1CCN(CC2CC2)c2nc(C)ccc2C1.O=C(O)C(F)(F)F | 26.46 | - | 14.11 | -
Cc1csc(C2(NCC(O)COc3ccc(F)cc3)CCC2)n1 (stereo not drawn) | -34.16 | -6.12 | 1.123 | 0.1965
COCCNc1ccc(CC2CCCN(Cc3c[nH]cn3)C2)nn1 (stereo not drawn) | -1.106 | -4.416 | - | 4.513
NC(=O)c1c(NC(=O)CCC(=O)O)sc2c1CCc1ccccc1-2 | -16.81 | -0.5693 | 23.28 | 0.9685
COC[C@@H]1CC[C@H]2[C@H](CCN2S(=O)(=O)Cc2ccccc2)O1 | - | -2.344 | - | 11.2
COc1ccccc1CN(CCCn1ccnc1)CC1CCOC1.O=C(O)CC(O)(CC(=O)O)C(=O)O (stereo not drawn) | 9.233 | - | -5.078 | -
CCOCCCNC(=O)c1nn(CC)cc1Br | -16.02 | -2.073 | 16.77 | 3.926
CNC(=O)NC(=O)CCN1CCCC1c1nc(C2CCCCC2)co1 (stereo not drawn) | 17.6 | -5.882 | 0.0612 | -2.232
CC(C)N(CC(N)=O)Cc1cccc(C(F)(F)F)c1 | 32.61 | 3.349 | -1.181 | 1.266
CCOc1cc(CN(C)CC(C)(C)O)ccc1OC(F)F | -9.919 | 1.356 | -10.55 | 6.091
COc1cccn(CC(=O)N(C)CCOc2cc(C)cc(C)c2)c1=O | 8.524 | 11.43 | 10.07 | 10.11
CN(C)C(=O)c1cn[nH]c1C1CCCN1Cc1c[nH]cn1 (stereo not drawn) | -5.535 | -5.028 | -17.33 | 3.196
O=C(Nc1ccccn1)c1csc(NC2CCCC2)n1 | -23.02 | 0.2427 | 3.313 | -0.7812
CC(Cn1cncc1-c1cnn(C2CCCCC2)c1)N1CCCCC1 (stereo not drawn) | - | 13.32 | - | 9.864
Cc1c(CN2CCOCC2)c(O)n(CCc2ccccc2)c(=O)c1C#N | 2.733 | 13.88 | -12.81 | -0.5102
COCCN1CCC2(CCCN(C(=O)c3cnoc3C)C2)C1=O (stereo not drawn) | -16.59 | -1.234 | 12.62 | 7.097
[H][C@@]12CN(Cc3ccc(CCC)o3)C[C@]1(C(=O)O)CN(CC1CC1)C2=O | -1.059 | - | -2.483 | -
Cc1cc(N2CCCC2)nc(CNS(=O)(=O)Cc2ccccc2)n1 | 38.74 | -5.273 | -2.826 | 12.52
CC(C)C1=NOC2(CCN(S(C)(=O)=O)CC2)C1 | 6.344 | -7.519 | 6.652 | 3.684
CCN(Cc1nc(COC)no1)Cc1cc2ccc(F)cc2[nH]c1=O | 14.06 | -0.4831 | 4.007 | 5.844
O=C1CCCN1CC1CN(CC2CCOCC2)Cc2nccn2C1 (stereo not drawn) | - | -2.629 | - | -8.211
Cc1nn(CCC#N)c(C)c1CCC(=O)N(C)C | - | 1.32 | - | 3.736
COCCN1CCC2(CCC(=O)N2Cc2csc(C)n2)CC1.O=C(O)C(F)(F)F.O=C(O)C(F)(F)F | 3.375 | - | 17.89 | -
CN(C)C1CCC2(CCN(Cc3nccn3C)CC2)c2ccccc21 (stereo not drawn) | - | - | - | 5.366
Cc1ccc(S(=O)(=O)N(CC2CCOC2)C2CC2)cc1N(C)C (stereo not drawn) | -8.079 | 4.397 | -4.246 | 1.656
Cc1ccc(C(=O)NCCNC(=O)N(C)C(C)c2ccccn2)cc1 (stereo not drawn) | 13.15 | -2.918 | -0.2981 | 4.545
C[C@@H]1CN(C2CCOC2)C[C@]12CCN(c1cccnc1)C2=O (stereo partly drawn) | - | -2.379 | - | 9.631
CCN1CCCC(C)(C(=O)NCCc2nnc(C)[nH]2)C1 (stereo not drawn) | 34.12 | 3.961 | 10.09 | -2.314
Cc1cc(CN2CC[C@H]3OCC[C@@]3(C(=O)N3CCOCC3)C2)no1 | - | - | - | 1.463
COc1ccccc1OCC(=O)Nc1ncccc1Cl | -1.542 | -0.3791 | 0.9887 | 0.8439
CCN1C[C@@H]2CN(C(=O)C3CC=CC3)C[C@@H]2C1=O | - | 3.779 | - | -
COc1cccc2c1ccn2CC(=O)Nc1nc[nH]n1 | -49.98 | 3.226 | 4.004 | 1.695

The first 4 entries again:

{"smiles": "CNS(=O)(=O)CC1CCCN1C(=O)c1cccc(Cl)c1", "stereo": "stereo not drawn", "Leishmania in macrophages": -19.31, "MtTrpRS": -6.791, "Toxoplasma": 1.514, "CoaBC": -0.4878}
{"smiles": "COCCN(Cc1sccc1C)C(=O)C1CCCN(C(N)=O)C1", "stereo": "stereo not drawn", "Leishmania in macrophages": 20.42, "MtTrpRS": 0.6173, "Toxoplasma": -1.429, "CoaBC": -0.2451}
{"smiles": "Cc1cc(CN(C)C(=O)c2cccc(N3CCCC3=O)c2)no1", "Leishmania in macrophages": 16.7, "MtTrpRS": 0.8655, "CoaBC": 1.285}
{"smiles": "Cc1cccc2cc(CN3CCC(N4CCOCC4)CC3)c(=O)[nH]c12", "Leishmania in macrophages": 16.39, "MtTrpRS": -2.315, "Toxoplasma": -11.88, "CoaBC": 2.857}

Data taken from ChEMBL document CHEMBL3988442, “University of Dundee, Small-Polar-MMV Screening Library” (2021).